Primary screen of a compound library

The values are deposited in ChEMBL (CHEMBL3988442, “University of Dundee, Small-Polar-MMV Screening Library” (2021)).

Each number is a percent effect as filed. How 0% and 100% were set is not recorded. Most values in the screen are low, and negative values occur. Compounds were drawn at random from those tested, without regard to their results.

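Whole-parasite assay of Trypanosoma brucei over 72 hours; the read-out is not stated. Tested at 30 µM. The record gives no direction; compounds that gave an IC50 in retests scored well above the rest, so higher reads as stronger inhibition. Values scatter widely below zero; nearly all retest evidence comes from the higher of the two concentrations used. About 64,000 compounds were tested under these conditions; 1.5% (about 940) showed 50% or more at least once.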

| compound | Percent Effect |
|---|---|
| `COCCNC(=O)N1CCN(C(C)C(=O)NC2CCCC2)CC1` (stereo not given) | -35.65 |
| `N#CC(NC(=O)CC(F)(F)F)c1ccsc1` (stereo not given) | -1.649 |
| `CC1CCN(S(=O)(=O)c2cccn(CC(=O)N3CCOCC3)c2=O)CC1` | -26.86 |
| `O=C(CCc1ccsc1)Nc1cnccc1O` | -13.42 |
| `CCc1ncc2c(n1)CN(Cc1nc(-c3ccsc3)no1)CC2` | 13.41 |
| `OC(COc1ccccc1)CN1CCN(c2nccs2)CC1` (stereo not given) | 17.61 |
| `O=C(NCCNc1cnccn1)N1CCCCCC1` | 9.29 |
| `Cc1nc(CN2CCCN(C(=O)CC(C)n3cccc3)CC2)cs1` (stereo not given) | -19.08 |
| `CS(=O)(=O)N1CCC(C(=O)N2CCC(Cn3cccn3)CC2)CC1` | -26.04 |
| `O=C(c1cc[nH]n1)N1CCC(c2nccn2Cc2ccncc2)CC1` | -43.21 |
| `CCC(CO)NC(=O)Nc1cc(F)ccc1Br` (stereo not given) | 38.46 |
| `CC(c1nc(C2CC2)no1)N1CCN(CCCN2CCCC2=O)CC1` (stereo not given) | -14.94 |
| `COCC(=O)N1CCCN(Cc2c(C)nc3ccc(Cl)cn23)CC1` | -10.97 |
| `CC(C)C(=O)N1CCN(c2cc(N(C)C)cnn2)CC1` | 6.498 |
| `O=C(O)C1(Cc2ccc(F)cc2)CCCN(Cc2ccncc2)C1` (stereo not given) | -6.42 |
| `CCOC(=O)c1n[nH]cc1CN1CCOC(Cc2ccc(F)cc2)C1` (stereo not given) | -57.49 |
| `O=C(O)C(F)(F)F.[H][C@@]12COC[C@]1(CNC(=O)C1CCC1)CN(Cc1ccccc1C)C2` | 6.043 |
| `CCS(=O)(=O)c1ncc(CN(C)C)n1Cc1ccccc1` | -19.71 |
| `COc1ccc(C)cc1CC(=O)N1CCN(CC(C)O)CC1` (stereo not given) | 6.765 |
| `COCC1CN(Cc2cc(C)on2)Cc2cn(CC3CCCC3)nc21.O=C(O)C(F)(F)F.O=C(O)C(F)(F)F` (stereo not given) | 4.747 |
| `[H][C@]12CN(C(=O)c3ccno3)CCN1C(=O)N(Cc1ccc(OC)cc1)C2` | -5.13 |
| `O=C(Cc1ccccc1F)NCC1CCN(CCN2CCOCC2)C1` (stereo not given) | 0.3431 |
| `O=C(OCc1cccc(F)c1)c1cccc(C(=O)N2CCCC2)n1` | -32.55 |
| `O=C(O)C(F)(F)F.[H][C@]12C[C@H](C(=O)NC)N(S(C)(=O)=O)[C@@]1([H])CN(Cc1csc(C)n1)C2` | -20.05 |
| `CCCc1n[nH]c(C2CN(CCNS(C)(=O)=O)CCO2)n1` (stereo not given) | -19.98 |
| `COc1cccc(C(=O)Nc2ccc(OC3CCN(C)CC3)cc2)c1` | -13.7 |
| `CC[C@H](C)[C@H](N)C(=O)N1CC(=O)c2sc(NCc3ccccc3)nc2C1` | 35.54 |
| `Cc1cc(N(C)C)nc(N(C)Cc2csc(C)n2)n1` | 9.908 |
| `CCOCCN1CCN(c2ccc(C#N)cn2)CC1CC` (stereo not given) | -7.678 |
| `Cc1ccc(-n2nc(C)cc2N)nn1` | -33.73 |
| `O=C(NCCc1c[nH]c2ccccc12)C1(n2cnnn2)CCCCC1` | -25.45 |
| `COc1ccc(CNC(=O)N2CCOCC2C2CC2)c(C)c1` (stereo not given) | -24.72 |
| `CC(C)S(=O)(=O)N(C)C(=O)CCc1ccsc1` | -19.9 |
| `CNC(=O)CN1C(=O)CCC12CCCN(Cc1ccccc1F)C2` (stereo not given) | -22.95 |
| `Cn1ccc(CN2CCC(Oc3ccccc3)CC2)cc1=O` | 18.81 |
| `CCc1ccccc1NC(=O)CCc1cnn(C)c1` | -0.8519 |
| `Cc1nnc(SCC(=O)N2CCc3[nH]nc(C4CCC4)c3C2)o1` | -21.06 |
| `Cc1cc(CN(C)C2CCN(c3cccc(-c4cscn4)c3)CC2)on1` | 11.31 |
| `c1ccc(-c2cc(CN3CCC(c4ccn[nH]4)CC3)on2)cc1` | -7.198 |
| `Cc1nc(-c2ccc(F)cc2)nc2c1CCN(C(=O)CN(C)C)CC2` | -27.01 |
| `O=C(O)C(F)(F)F.O=C(O)C(F)(F)F.O=C(O)C(F)(F)F.[H][C@@]12CCN(Cc3cnn(C)c3)[C@@]1([H])CCN2Cc1cccc(C)n1` | -22.1 |
| `CC(C)Nc1nc(O)cc(C2CC(=O)N(C3CCCCC3)C2)n1` (stereo not given) | 22.14 |
| `Cc1cc(CN(C)C(=O)C2CCCN(C(=O)c3cccs3)C2)no1` (stereo not given) | -9.192 |
| `Cc1csc(-c2cccc(NC(=O)NCC(C)(C)C(N)=O)c2)n1` | -31.07 |
| `CCCc1cc(CNC2CCN(c3cc(C(C)C)nc(C)n3)CC2)on1` | -1.608 |
| `Cn1ncnc1CNc1ccc2c(c1)N(C(=O)OC(C)(C)C)CCC2` | -19.43 |
| `CCc1nc(CN(C)C2CCN(Cc3ccc(Cl)s3)C2)no1` (stereo not given) | -12.8 |
| `CC(CC(=O)NS(C)(=O)=O)C1CCCCC1` (stereo not given) | -21.51 |
| `[H][C@@]12C[C@H](c3nc(C)no3)CN(Cc3ccncc3)[C@]1([H])CCO2` | 0.6018 |
| `O=C(CN1CCCCC1)N1CCC(c2cc(=O)n3c(n2)CCCCC3)C1.O=C(O)CC(O)(CC(=O)O)C(=O)O` (stereo not given) | -11 |
| `CSc1nsc(SCC(=O)c2cc3c(cc2Cl)NC(=O)C3)n1` | -27.35 |
| `CC(=O)N1N=C(c2ccccc2)OC1C(=O)NCCN(C(C)C)C(C)C` (stereo not given) | -16.31 |
| `[H][C@]12CC[C@]([H])(CN(Cc3ccccc3)C1)N(Cc1nnc(C3CC3)o1)C2` | -28.95 |
| `O=C(O)C(F)(F)F.[H][C@@]12CCN(Cc3ccoc3)C[C@]1([H])OCCN(c1ccccc1)C2=O` | 19.86 |
| `CN1C(=O)COc2ccc(C(=O)Cn3cnc4ccccc4c3=O)cc21` | -12.67 |
| `CCn1cc(C(=O)N2CCCC3(CCC(=O)N(CCC(C)C)C3)C2)cn1` (stereo not given) | -21.22 |
| `Cc1occc1CN(C)C(=O)Nc1ccc(=O)n(C)c1` | -12.53 |
| `CC(=O)N1N=C(c2ccccc2)OC1C(=O)NCCc1ccc(Cl)cc1` (stereo not given) | -41.87 |
| `Cc1ccc(CNC2(Cc3cc(-c4ccccn4)on3)COC2)o1` | -8.513 |
| `CC1CCN(S(=O)(=O)c2cccn(CC(=O)NC3CCCC3)c2=O)CC1` | -62.63 |
| `CCN1CCO[C@]2(CCC[C@H]2COCc2csc(C)n2)C1.O=C(O)C(F)(F)F.O=C(O)C(F)(F)F` | 9.11 |
| `COCc1cc(NCCCSc2nnc(C)s2)ncn1` | 0.4948 |
| `CC(C)C1CN(C(=O)c2cc(C3CC3)n[nH]2)CCC(=O)N1CC1CC1` (stereo not given) | -24.8 |

For reference, 4 entries once more:

compound,Percent Effect
COc1cccc(C(=O)Nc2ccc(OC3CCN(C)CC3)cc2)c1,-13.7
CC(=O)N1N=C(c2ccccc2)OC1C(=O)NCCc1ccc(Cl)cc1 (stereo not given),-41.87
COCc1cc(NCCCSc2nnc(C)s2)ncn1,0.4948
CC(C)Nc1nc(O)cc(C2CC(=O)N(C3CCCCC3)C2)n1 (stereo not given),22.14